The text below walks through data of patent publication EP1881007A1.

Chains of the proteins cited; added tags and fusions are not shown.
UniProt Q99816: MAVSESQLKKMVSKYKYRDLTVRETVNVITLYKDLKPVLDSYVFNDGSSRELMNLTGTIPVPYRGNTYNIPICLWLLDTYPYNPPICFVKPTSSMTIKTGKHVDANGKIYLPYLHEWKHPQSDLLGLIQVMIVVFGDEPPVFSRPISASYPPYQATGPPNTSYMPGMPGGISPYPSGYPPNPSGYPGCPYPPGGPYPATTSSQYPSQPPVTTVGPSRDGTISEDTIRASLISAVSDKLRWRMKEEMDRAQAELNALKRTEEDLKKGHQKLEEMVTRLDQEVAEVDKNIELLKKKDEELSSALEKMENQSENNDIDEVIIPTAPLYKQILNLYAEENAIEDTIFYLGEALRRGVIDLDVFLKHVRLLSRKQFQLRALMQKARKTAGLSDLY

The target in the test is TSG101 (UniProt Q99816). Description: yeast two hybrid screening.

Results are given in words; binding and its absence hold for the method and conditions named. Some results given as binding are weak or reduced against the parent protein; the word gives no strength.

B1: DINO polypeptide (enzyme)
chain: MYFCWGADSRELQRRRTAGSPGAELLQAASGERHSLLLLTNHRVLSCGDNSRGQLGRRGAQRGELPEPIQALETLIVDLVSCGKEHSLAVCHKGRVFAWGAGSEGQLGIGEFKEISFTPKKIMTLNDIKIIQVSCGHYHSLALSKDSQVFSWGKNSHGQLGLGKEFPSQASPQRVRSLEGIPLAQVAAGGAHSFALSLCGTSFGWGSNSAGQLALSGRNVPVQSNKPLSVGALKNLGVVYISCGDAHTAVLTQDGKVFTFGDNRSGQLGYSPTPEKRGPQLVERIDGLVSQIDCGSYHTLAYVHTTGQVVSFGHGPSDTSKPTHPEALTENFDISCLISAEDFVDVQVKHIFAGTYANFVTTHQDTSSTRAPGKTLPEISRISQSMAEKWIAVKRRSTEHEMAKSEIRMIFSSPACLTASFLKKRGTGETTSIDVDLEMARDTFKKLTKKEWISSMITTCLEDDLLRALPCHSPHQEALSVFLLLPECPVMHDSKNWKNLVVPFAKAVCEMSKQSLQVLKKCWAFLQESSLNPLIQMLKAAIISQLLHQTKTEQDHCNVKALLGMMKELHKVNKANCRLPENTFNINELSNLLNFYIDRGRQLFRDNHLIPAETPSPVIFSDFPFIFNSLSKIKLLQADSHIKMQMSEKKAYMLMHETILQKKDEFPPSPRFILRVRRSRLVKDALRQLSQAEATDFCKVLVVEFINEICPESGGVSSEFFHCMFEEMTKPEYGMFMYPEMGSCMWFPAKPKPEKKRYFLFGMLCGLSLFNLNVANLPFPLALYKKLLDQKPSLEDLKELSPRLGKSLQEVLDDAADDIGDALCIRFSIHWDQNDVDLIPNGISIPVDQTNKRDYVSKYIDYIFNVSVKAVYEEFQRGFYRVCEKEILRHFYPEELMTGIIGNTDYDWKQFEQNSKYEQGYQKSHPTIQLFWKAFHKLTLDEKKKFLFFLTGRDRLHARGIQKMEIVFRCPETFSERDHPTSITCHNILSLPKYSTMERMEEALQVAINNNRGFVSPMLTQS
Consider B1, for which the binding result was “binds”.
